Results reported in patent US20150150156, “METHODS AND COMPOSITIONS FOR REDUCING GENE EXPRESSION IN PLANTS” (The Regents of the University of California, published 2015).

Target: T1, SUVR5 zinc finger domain (aa 720-866) (Arabidopsis thaliana) (UniProt O64827)
T1 sequence: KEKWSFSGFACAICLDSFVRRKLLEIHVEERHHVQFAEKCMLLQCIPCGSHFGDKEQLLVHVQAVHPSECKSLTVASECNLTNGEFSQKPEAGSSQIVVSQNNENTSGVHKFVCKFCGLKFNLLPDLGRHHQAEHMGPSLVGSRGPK
Test: SELEX
Conditions: consensus from 10-cycle random SELEX and 9-cycle genomic SELEX; 25 mM HEPES pH 7.5, 50 mM KCl, 2.5 mM MgCl2, 1 uM ZnSO4, RT; purified recombinant protein; protein details: GST fusion (pDEST15)

Sequence: TACTAGTA (double strand) [SELEX consensus motif]
- selection result: selected

The exact form of at least one protein or probe is not confirmed. Tags and fusion partners may be left off the protein sequences shown.
